From the supplement of paper PMC10849652
This is one part of the list.

Sequences of proteins named here, by UniProt entry; tags and fusion partners are left off. A change or cut given only in a name is not applied to a line headed by its entry.
UniProt O95197: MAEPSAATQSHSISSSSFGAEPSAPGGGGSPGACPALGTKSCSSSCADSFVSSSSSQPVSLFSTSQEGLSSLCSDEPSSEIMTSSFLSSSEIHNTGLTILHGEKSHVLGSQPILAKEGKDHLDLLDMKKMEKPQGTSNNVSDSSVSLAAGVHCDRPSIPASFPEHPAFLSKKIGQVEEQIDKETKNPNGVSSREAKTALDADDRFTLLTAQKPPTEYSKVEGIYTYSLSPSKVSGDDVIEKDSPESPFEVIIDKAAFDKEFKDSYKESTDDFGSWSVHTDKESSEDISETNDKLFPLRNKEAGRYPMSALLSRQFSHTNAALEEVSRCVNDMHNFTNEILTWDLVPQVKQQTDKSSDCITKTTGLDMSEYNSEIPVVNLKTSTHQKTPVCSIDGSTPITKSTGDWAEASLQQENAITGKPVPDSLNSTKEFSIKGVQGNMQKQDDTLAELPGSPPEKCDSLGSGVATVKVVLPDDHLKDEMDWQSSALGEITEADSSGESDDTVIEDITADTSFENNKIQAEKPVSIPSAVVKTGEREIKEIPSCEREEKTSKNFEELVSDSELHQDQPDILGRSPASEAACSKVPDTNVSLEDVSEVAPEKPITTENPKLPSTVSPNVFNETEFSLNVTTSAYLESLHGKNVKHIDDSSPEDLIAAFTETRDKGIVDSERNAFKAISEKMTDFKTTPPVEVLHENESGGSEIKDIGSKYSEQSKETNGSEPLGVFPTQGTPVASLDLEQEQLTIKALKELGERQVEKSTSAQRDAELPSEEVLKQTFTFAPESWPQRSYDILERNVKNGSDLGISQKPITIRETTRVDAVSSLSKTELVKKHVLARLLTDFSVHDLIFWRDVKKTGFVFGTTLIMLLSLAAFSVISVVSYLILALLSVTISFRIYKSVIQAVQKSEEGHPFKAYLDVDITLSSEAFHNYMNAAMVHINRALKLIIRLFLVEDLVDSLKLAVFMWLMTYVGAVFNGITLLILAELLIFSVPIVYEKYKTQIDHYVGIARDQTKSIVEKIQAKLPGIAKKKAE
UniProt Q96T23: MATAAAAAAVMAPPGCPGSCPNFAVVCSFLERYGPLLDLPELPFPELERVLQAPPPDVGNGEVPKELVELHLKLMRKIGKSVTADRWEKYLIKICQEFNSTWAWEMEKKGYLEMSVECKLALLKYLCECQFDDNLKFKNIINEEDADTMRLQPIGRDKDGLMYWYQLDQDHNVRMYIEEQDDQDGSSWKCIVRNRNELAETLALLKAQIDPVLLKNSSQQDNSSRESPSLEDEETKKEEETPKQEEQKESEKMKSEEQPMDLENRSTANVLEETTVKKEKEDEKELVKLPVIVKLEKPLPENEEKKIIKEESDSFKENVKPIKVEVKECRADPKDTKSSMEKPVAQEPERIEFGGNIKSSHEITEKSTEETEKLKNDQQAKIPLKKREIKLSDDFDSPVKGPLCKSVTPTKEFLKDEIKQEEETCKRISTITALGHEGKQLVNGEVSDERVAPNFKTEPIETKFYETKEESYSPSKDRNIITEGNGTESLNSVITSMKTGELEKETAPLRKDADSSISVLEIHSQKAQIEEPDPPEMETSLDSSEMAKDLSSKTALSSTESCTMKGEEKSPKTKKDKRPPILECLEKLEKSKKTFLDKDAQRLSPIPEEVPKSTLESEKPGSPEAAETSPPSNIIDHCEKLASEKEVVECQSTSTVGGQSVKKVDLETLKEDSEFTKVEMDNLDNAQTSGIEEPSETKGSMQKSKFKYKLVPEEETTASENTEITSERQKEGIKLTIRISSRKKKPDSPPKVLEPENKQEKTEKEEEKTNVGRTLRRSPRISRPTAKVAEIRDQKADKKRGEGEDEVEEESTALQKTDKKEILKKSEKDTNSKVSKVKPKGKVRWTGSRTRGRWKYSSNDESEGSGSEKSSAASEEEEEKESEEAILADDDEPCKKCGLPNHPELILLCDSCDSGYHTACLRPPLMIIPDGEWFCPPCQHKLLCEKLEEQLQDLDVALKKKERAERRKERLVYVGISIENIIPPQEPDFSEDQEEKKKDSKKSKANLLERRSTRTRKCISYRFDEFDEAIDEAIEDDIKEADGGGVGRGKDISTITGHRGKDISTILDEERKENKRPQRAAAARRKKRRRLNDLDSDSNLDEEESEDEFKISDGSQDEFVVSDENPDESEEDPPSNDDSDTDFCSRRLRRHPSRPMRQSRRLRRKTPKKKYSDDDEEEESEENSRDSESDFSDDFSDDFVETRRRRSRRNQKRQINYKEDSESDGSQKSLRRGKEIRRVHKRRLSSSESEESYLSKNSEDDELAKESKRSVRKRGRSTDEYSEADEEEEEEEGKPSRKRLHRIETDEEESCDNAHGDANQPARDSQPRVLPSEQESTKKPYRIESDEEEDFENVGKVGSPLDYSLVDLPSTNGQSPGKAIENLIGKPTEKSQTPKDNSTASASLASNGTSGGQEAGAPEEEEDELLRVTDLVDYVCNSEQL
UniProt Q15050: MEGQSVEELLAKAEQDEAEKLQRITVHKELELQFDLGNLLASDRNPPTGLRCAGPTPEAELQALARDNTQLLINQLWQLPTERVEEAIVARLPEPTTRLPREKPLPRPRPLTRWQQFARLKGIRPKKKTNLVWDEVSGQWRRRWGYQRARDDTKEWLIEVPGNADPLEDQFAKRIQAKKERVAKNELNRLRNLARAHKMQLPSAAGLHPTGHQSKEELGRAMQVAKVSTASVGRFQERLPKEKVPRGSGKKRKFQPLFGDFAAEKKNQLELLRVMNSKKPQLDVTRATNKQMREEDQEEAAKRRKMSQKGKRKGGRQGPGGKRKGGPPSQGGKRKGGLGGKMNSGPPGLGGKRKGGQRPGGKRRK
UniProt Q9BY42: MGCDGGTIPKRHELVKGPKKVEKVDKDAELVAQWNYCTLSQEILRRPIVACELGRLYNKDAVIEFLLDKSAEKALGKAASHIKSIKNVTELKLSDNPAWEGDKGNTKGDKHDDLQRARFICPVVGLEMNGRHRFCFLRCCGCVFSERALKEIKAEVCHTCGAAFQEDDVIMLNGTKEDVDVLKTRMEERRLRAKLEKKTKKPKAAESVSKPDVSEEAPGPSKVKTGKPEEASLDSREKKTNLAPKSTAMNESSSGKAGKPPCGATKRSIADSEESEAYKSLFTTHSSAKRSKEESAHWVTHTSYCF
UniProt Q15436: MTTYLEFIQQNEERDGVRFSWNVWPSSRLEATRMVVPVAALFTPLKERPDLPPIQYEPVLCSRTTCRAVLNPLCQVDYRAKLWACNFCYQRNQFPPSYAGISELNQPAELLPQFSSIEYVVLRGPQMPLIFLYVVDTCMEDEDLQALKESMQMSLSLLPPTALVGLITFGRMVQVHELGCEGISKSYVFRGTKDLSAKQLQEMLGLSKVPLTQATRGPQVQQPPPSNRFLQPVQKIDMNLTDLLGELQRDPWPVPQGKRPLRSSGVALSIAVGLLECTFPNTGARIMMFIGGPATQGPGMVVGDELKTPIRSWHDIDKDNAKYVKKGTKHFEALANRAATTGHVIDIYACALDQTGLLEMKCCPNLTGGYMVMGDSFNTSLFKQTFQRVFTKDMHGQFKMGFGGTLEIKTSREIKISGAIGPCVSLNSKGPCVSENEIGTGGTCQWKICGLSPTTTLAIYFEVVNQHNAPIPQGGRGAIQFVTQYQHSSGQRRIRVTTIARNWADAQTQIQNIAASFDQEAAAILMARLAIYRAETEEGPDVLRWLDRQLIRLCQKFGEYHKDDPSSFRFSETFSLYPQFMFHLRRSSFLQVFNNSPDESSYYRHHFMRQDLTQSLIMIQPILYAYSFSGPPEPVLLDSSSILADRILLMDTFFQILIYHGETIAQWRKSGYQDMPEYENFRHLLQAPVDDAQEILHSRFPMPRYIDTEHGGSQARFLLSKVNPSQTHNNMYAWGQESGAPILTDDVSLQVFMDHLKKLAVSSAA
UniProt O95104: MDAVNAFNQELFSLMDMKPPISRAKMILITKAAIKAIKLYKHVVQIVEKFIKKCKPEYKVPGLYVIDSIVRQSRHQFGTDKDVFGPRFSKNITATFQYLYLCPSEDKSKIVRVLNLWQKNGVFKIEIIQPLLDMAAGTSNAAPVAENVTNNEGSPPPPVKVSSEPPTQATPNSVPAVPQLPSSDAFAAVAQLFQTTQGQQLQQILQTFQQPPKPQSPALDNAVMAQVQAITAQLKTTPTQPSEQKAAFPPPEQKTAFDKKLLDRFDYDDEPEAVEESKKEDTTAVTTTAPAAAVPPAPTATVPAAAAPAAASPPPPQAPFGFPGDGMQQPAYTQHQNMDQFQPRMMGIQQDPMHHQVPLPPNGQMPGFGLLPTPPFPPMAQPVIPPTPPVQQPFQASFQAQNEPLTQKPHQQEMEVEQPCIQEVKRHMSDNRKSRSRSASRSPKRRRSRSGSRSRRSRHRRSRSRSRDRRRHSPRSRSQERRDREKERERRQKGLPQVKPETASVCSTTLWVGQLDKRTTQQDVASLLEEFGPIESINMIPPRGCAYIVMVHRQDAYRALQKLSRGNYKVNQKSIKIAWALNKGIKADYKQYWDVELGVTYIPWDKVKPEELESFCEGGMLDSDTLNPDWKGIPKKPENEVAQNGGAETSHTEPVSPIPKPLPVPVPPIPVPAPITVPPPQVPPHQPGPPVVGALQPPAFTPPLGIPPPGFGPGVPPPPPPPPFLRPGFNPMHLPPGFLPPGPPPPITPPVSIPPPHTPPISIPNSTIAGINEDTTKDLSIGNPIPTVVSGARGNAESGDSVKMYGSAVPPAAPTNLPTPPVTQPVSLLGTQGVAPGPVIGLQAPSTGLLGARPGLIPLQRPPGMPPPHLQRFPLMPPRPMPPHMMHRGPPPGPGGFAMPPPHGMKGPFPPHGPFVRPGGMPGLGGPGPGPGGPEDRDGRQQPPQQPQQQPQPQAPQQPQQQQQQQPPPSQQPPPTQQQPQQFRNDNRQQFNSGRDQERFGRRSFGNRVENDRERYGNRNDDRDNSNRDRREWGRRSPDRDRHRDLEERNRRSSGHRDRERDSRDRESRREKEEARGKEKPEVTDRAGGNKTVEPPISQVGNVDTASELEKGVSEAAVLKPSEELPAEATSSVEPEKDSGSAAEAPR
UniProt O95486: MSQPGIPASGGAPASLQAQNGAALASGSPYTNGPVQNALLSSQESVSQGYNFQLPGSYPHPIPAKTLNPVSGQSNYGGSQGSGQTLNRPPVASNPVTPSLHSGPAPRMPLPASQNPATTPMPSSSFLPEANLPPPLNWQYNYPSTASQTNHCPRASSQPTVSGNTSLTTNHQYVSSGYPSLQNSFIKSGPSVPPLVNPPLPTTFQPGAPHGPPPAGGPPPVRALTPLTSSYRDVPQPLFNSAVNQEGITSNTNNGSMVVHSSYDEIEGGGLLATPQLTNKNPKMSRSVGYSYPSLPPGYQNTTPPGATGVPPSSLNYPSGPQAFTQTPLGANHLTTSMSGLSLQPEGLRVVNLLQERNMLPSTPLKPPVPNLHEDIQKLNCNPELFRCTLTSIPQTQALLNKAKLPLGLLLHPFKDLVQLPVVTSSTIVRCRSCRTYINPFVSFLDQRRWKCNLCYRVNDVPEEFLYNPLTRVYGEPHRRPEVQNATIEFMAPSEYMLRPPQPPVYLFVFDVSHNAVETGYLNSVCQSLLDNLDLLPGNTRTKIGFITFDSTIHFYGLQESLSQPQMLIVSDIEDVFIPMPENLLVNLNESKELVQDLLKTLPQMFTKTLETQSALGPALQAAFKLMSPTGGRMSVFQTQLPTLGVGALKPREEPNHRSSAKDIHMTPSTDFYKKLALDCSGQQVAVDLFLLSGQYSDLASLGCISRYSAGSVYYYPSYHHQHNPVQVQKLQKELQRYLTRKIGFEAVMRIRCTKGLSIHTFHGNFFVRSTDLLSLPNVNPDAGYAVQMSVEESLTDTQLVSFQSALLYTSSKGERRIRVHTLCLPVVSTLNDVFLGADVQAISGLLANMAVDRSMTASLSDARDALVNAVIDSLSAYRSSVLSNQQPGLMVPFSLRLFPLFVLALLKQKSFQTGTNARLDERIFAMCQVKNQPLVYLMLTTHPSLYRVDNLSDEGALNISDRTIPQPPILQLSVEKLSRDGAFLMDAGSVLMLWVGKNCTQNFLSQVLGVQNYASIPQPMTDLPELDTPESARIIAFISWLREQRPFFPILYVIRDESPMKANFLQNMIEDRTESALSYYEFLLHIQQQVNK
UniProt O00767: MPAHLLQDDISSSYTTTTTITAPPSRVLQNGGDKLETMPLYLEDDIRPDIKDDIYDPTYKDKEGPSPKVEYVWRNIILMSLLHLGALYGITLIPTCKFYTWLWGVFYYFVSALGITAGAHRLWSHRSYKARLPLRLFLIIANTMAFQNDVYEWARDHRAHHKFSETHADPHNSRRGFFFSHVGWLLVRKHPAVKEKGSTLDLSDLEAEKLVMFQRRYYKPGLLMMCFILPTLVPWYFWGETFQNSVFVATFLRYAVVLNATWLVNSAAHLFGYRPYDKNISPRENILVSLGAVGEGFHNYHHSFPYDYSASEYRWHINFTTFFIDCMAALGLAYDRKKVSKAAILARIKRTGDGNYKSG

Legend:
Test in all cases: log2 fold change, soluble protein after heating vs DMSO (PISA); higher = thermal stabilisation; K562 cells, 10 uM, 30 min; active = over 0.2 and 3.5 SD of the protein, either way, in both replicates (recomputed)
[1] = compound: CS(=O)(=O)c1ccc(-c2cnc(N)c(C(=O)Nc3ccccc3)n2)cc1
Method in brief: (§1)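 K562 cells at 2×10^6 cells/mL were treated for 30 min with 10 μM compound, and aliquots were heated for 3 min over 48°C-58°C before pooling. Extraction used PBS with 0.5% NP-40 at 4°C, and soluble protein was the supernatant after 21,000xg for 90 min, measured by TMTpro 16plex LC-MS/MS with channel sums equalised. Thermal stability values, relative to control samples and from duplicates, are log2 fold changes.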

crizotinib = compound: C[C@@H](Oc1cc(-c2cnn(C3CCNCC3)c2)cnc1N)c1c(Cl)ccc(F)c1Cl [crizotinib]
Method in brief: as §1

[2] = compound: C[C@@H]1COCCN1C2=NC(=NC(=C2)C3(CC3)S(=O)(=O)C)C4=C5C=CNC5=CC=C4
Method in brief: as §1

[3] = compound: C[C@H](C1=CC=C(C=C1)C(=O)NC2=C3C=CNC3=NC=C2)N
Method in brief: as §1

duvelisib = compound: C[C@H](Nc1ncnc2nc[nH]c12)c1cc2cccc(Cl)c2c(=O)n1-c1ccccc1 [duvelisib]
Method in brief: as §1

gandotinib = compound: Cc1cc(Nc2cc(CN3CCOCC3)c3nc(C)c(Cc4ccc(Cl)cc4F)n3n2)n[nH]1 [gandotinib]
Method in brief: as §1

tozasertib = compound: Cc1cc(Nc2cc(N3CCN(C)CC3)nc(Sc3ccc(NC(=O)C4CC4)cc3)n2)n[nH]1 [tozasertib]
Method in brief: as §1

[4] = compound: Cc1cc(SCc2sc(-c3ccc(C(F)(F)F)cc3)nc2C)ccc1OCC(=O)O
Method in brief: as §1

doramapimod = compound: Cc1ccc(-n2nc(C(C)(C)C)cc2NC(=O)Nc2ccc(OCCN3CCOCC3)c3ccccc23)cc1 [doramapimod]
Method in brief: as §1

ispinesib = compound: Cc1ccc(C(=O)N(CCCN)[C@@H](c2nc3cc(Cl)ccc3c(=O)n2Cc2ccccc2)C(C)C)cc1 [ispinesib]
Method in brief: as §1

bafetinib = compound: Cc1ccc(NC(=O)c2ccc(CN3CC[C@H](N(C)C)C3)c(C(F)(F)F)c2)cc1Nc1nccc(-c2cncnc2)n1 [bafetinib]
Method in brief: as §1

[5] = compound: Cc1cccc(CC(=O)N2CCc3c2ccc(-c2cn(C)c4ncnc(N)c24)c3F)n1
Method in brief: as §1

nilotinib = compound: Cc1cn(-c2cc(NC(=O)c3ccc(C)c(Nc4nccc(-c5cccnc5)n4)c3)cc(C(F)(F)F)c2)cn1 [nilotinib]
Method in brief: as §1

[6] = compound: Cc1nc(Nc2n[nH]c3c2CN(C(=O)N[C@H](CN(C)C)c2ccccc2)C3(C)C)c2sccc2n1
Method in brief: as §1

dasatinib = compound: Cc1nc(Nc2ncc(C(=O)Nc3c(C)cccc3Cl)s2)cc(N2CCN(CCO)CC2)n1 [dasatinib]
Method in brief: as §1

[7] = compound: Cc1ncc(-c2ccnc(Nc3ccc(S(C)(=O)=O)cc3)n2)n1C(C)C
Method in brief: as §1

[8] = compound: Cn1cc(-c2ccc3c(c2)CCN3C(=O)Cc2cccc(C(F)(F)F)c2)c2c(N)ncnc21
Method in brief: as §1

[9] = compound: Cn1cc(-c2ccc3nnc(C(F)(F)c4ccc5ncccc5c4)n3n2)cn1
Method in brief: as §1

tipifarnib = compound: Cn1cncc1[C@@](N)(c1ccc(Cl)cc1)c1ccc2c(c1)c(-c1cccc(Cl)c1)cc(=O)n2C [tipifarnib]
Method in brief: as §1

mubritinib = compound: FC(F)(F)c1ccc(/C=C/c2nc(COc3ccc(CCCCn4ccnn4)cc3)co2)cc1 [mubritinib]
Method in brief: as §1

Measured: log2 fold change

RTN3 (UniProt O95197)
inactive: [1] 0.055 | crizotinib 0.029 | [2] 0.022 | [3] -0.034 | duvelisib 0.111 | gandotinib -0.025 | tozasertib -0.02 | [4] 0.039 | doramapimod -0.008 | ispinesib 0.02 | bafetinib -0.049 | [5] -0.075 | nilotinib -0.022 | [6] 0.024 | dasatinib -0.038 | [7] -0.025 | [8] 0.067 | [9] 0.037 | tipifarnib 0.007 | mubritinib 0

RSF1 (UniProt Q96T23)
inactive: [1] 0.056 | crizotinib -0.054 | [2] -0.002 | [3] -0.058 | gandotinib -0.104 | [4] 0.194 | doramapimod 0.043 | ispinesib 0.087 | bafetinib 0.117 | [5] -0.027 | nilotinib 0.087 | [6] -0.102 | dasatinib -0.082 | [7] -0.096 | [8] 0.046 | [9] 0.079 | tipifarnib -0.222 | mubritinib 0.237

RRS1 (UniProt Q15050)
inactive: [1] -0.022 | crizotinib 0 | [2] -0.365 | [3] 0.304 | gandotinib 0.089 | [4] -0.034 | doramapimod 0.235 | ispinesib 0.019 | bafetinib 0.121 | [5] -0.125 | nilotinib -0.024 | [6] 0.073 | dasatinib 0.161 | [7] 0.267 | [8] -0.431 | [9] -0.165 | tipifarnib 0.105 | mubritinib -0.226

SDAD1 (UniProt Q9NVU7)
inactive: [1] 0.04 | crizotinib -0.362 | [2] 0.071 | [3] 0.04 | duvelisib -0.044 | gandotinib -0.035 | [4] -0.038 | doramapimod 0.166 | ispinesib -0.044 | bafetinib 0.107 | [5] 0.01 | nilotinib -0.324 | [6] 0.463 | dasatinib 0.1 | [7] -0.197 | [8] -0.026 | [9] 0.016 | mubritinib -0.032

RTF2 (UniProt Q9BY42)
inactive: [1] -0.005 | crizotinib 0.234 | [2] -0.061 | [3] -0.089 | gandotinib 0.104 | [4] -0.003 | doramapimod -0.083 | ispinesib 0.151 | bafetinib -0.074 | [5] -0.001 | nilotinib -0.045 | [6] -0.125 | dasatinib -0.012 | [7] 0.039 | [8] -0.071 | [9] -0.039 | tipifarnib -0.065 | mubritinib -0.047

SEC23A (UniProt Q15436)
inactive: [1] 0.001 | crizotinib -0.016 | [2] 0.061 | [3] -0.102 | gandotinib -0.109 | [4] 0.03 | doramapimod -0.092 | ispinesib 0.023 | bafetinib -0.011 | [5] 0.024 | nilotinib -0.012 | [6] 0.014 | dasatinib -0.07 | [7] -0.009 | [8] -0.018 | [9] -0.052 | tipifarnib -0.013 | mubritinib -0.002

SDHB, A0A087WWT1
inactive: [1] 0.074 | crizotinib 0 | [2] 0.079 | [3] 0.164 | duvelisib 0.182 | gandotinib -0.07 | [4] -0.093 | doramapimod -0.022 | ispinesib -0.197 | bafetinib -0.116 | [5] -0.077 | dasatinib 0.1 | [8] 0.015 | [9] -0.03 | tipifarnib 0.178 | mubritinib 0.147

SCAF11 (UniProt Q99590)
inactive: [1] 0.021 | crizotinib -0.06 | [2] -0.069 | [3] 0.229 | gandotinib 0.543 | [4] -0.106 | doramapimod -0.05 | ispinesib -0.012 | bafetinib 0.173 | [5] -0.144 | nilotinib 0.078 | [6] -0.007 | dasatinib 0.144 | [7] 0.379 | [8] -0.05 | [9] -0.03 | tipifarnib 0.067 | mubritinib 0.052

RSRC2 (UniProt Q7L4I2)
inactive: [1] 0.02 | crizotinib 0.022 | [2] -0.018 | [3] -0.095 | gandotinib 0.052 | [4] -0.039 | doramapimod -0.022 | ispinesib 0.087 | bafetinib -0.091 | [5] -0.091 | nilotinib 0 | dasatinib 0.002 | [7] -0.028 | [8] -0.007 | [9] -0.056 | tipifarnib 0.012 | mubritinib 0.02
active: [6] -2.11

SEC24B isoform 3 (UniProt O95487)
inactive: [1] 0.003 | crizotinib -0.046 | [2] -0.135 | [3] 0.073 | duvelisib -0.048 | gandotinib -0.009 | tozasertib 0.076 | [4] 0.075 | doramapimod 0.088 | ispinesib -0.011 | bafetinib 0.026 | [5] -0.046 | dasatinib -0.186 | [8] -0.115 | [9] -0.004 | tipifarnib -0.014 | mubritinib -0.114

SCAF4 (UniProt O95104)
inactive: [1] -0.008 | crizotinib 0 | [2] 0.038 | [3] 0.062 | duvelisib -0.086 | gandotinib -0.022 | tozasertib -0.047 | [4] 0.171 | doramapimod 0.101 | bafetinib -0.121 | [5] -0.008 | nilotinib 0.017 | [6] -0.123 | dasatinib -0.131 | [7] 0.064 | [8] -0.126 | tipifarnib 0.183 | mubritinib 0.048

Two records picked at random from the list so far, as already listed:
SDHB, A0A087WWT1
inactive: [1] 0.074 | crizotinib 0 | [2] 0.079 | [3] 0.164 | duvelisib 0.182 | gandotinib -0.07 | [4] -0.093 | doramapimod -0.022 | ispinesib -0.197 | bafetinib -0.116 | [5] -0.077 | dasatinib 0.1 | [8] 0.015 | [9] -0.03 | tipifarnib 0.178 | mubritinib 0.147

SEC24B isoform 3 (UniProt O95487)
inactive: [1] 0.003 | crizotinib -0.046 | [2] -0.135 | [3] 0.073 | duvelisib -0.048 | gandotinib -0.009 | tozasertib 0.076 | [4] 0.075 | doramapimod 0.088 | ispinesib -0.011 | bafetinib 0.026 | [5] -0.046 | dasatinib -0.186 | [8] -0.115 | [9] -0.004 | tipifarnib -0.014 | mubritinib -0.114

(cont.)

SCCPDH (UniProt Q8NBX0)
inactive: [1] 0.074 | crizotinib 0.333 | [2] 0.058 | [3] -0.093 | gandotinib 0.313 | [4] 0.124 | doramapimod 0.007 | ispinesib 0.081 | bafetinib 0.161 | [5] -0.046 | nilotinib 0.189 | [6] 0.019 | dasatinib 0.008 | [7] 0.174 | [8] 0.273 | [9] -0.074 | mubritinib 0.104
active: tipifarnib 0.419

RTN2 (UniProt O75298)
inactive: [1] -0.091 | crizotinib -0.045 | [2] 0.189 | [3] -0.117 | duvelisib 0.121 | tozasertib 0.009 | [4] -0.077 | doramapimod 0.009 | ispinesib -0.09 | bafetinib -0.145 | nilotinib 0.031 | [6] 0.039 | dasatinib 0.055 | [7] 0.004 | [8] -0.027 | [9] 0.161 | tipifarnib -0.056 | mubritinib 0.084

SAFB2 (UniProt Q14151)
inactive: [1] -0.079 | crizotinib -0.016 | [2] -0.316 | [3] 0.164 | gandotinib 0.184 | [4] 0.006 | doramapimod 0.089 | ispinesib -0.043 | bafetinib 0.17 | [5] -0.018 | nilotinib -0.016 | [6] 0.117 | dasatinib 0.183 | [7] -0.054 | [8] -0.135 | [9] -0.058 | tipifarnib 0.085 | mubritinib -0.077

SEC24A (UniProt O95486)
inactive: [1] 0.002 | crizotinib -0.001 | [2] 0.075 | [3] 0.001 | gandotinib -0.148 | [4] 0.084 | doramapimod -0.029 | ispinesib 0.017 | bafetinib -0.018 | [5] 0.041 | nilotinib -0.126 | [6] 0.021 | dasatinib -0.121 | [7] -0.012 | [8] 0.008 | [9] 0.016 | tipifarnib -0.005 | mubritinib 0.017

SEC31A (UniProt O94979)
inactive: [1] 0.045 | crizotinib -0.011 | [2] 0.007 | [3] 0.084 | gandotinib -0.158 | [4] 0.064 | doramapimod 0 | ispinesib 0.034 | bafetinib 0.011 | [5] 0.019 | nilotinib -0.11 | [6] -0.042 | dasatinib -0.134 | [7] 0.054 | [8] -0.031 | [9] -0.057 | tipifarnib -0.065 | mubritinib 0.079

SCD (UniProt O00767)
inactive: [1] 0.024 | crizotinib -0.2 | [2] -0.06 | [3] -0.068 | gandotinib -0.061 | [4] -0.119 | doramapimod -0.028 | ispinesib -0.319 | bafetinib -0.153 | [5] 0.109 | nilotinib -0.063 | [6] -0.007 | dasatinib -0.026 | [7] -0.019 | [8] 0.013 | [9] 0.034 | tipifarnib 0.075 | mubritinib 0.019
